Experiment [1] addresses T1, PeaeIF4E (peanut eukaryotic translation initiation factor 4E) in the bait vector pGBKT7 (Arachis hypogaea (peanut)) (UniProt K0P2S0).
T1 sequence: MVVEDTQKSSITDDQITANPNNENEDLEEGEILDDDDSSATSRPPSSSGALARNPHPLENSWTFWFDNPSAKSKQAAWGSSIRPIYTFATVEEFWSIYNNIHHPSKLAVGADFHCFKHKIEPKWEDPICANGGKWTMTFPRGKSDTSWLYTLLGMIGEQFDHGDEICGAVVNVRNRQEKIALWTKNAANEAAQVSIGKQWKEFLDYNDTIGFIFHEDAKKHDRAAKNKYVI
The experiment in a line: two-hybrid; Matchmaker Gold Yeast two-hybrid system, AH109 yeast cells; PStV VPg and HC-Pro in the prey vector pGADT7, eIF4E/eIF(iso)4E in the bait vector pGBKT7; selective medium SD/-Leu-Trp-His-Ade plus X-α-Gal, 4 days at 30°C.

The target of experiment [2] is T2, PeaeIF(iso)4E (peanut eukaryotic translation initiation factor (iso)4E) in the bait vector pGBKT7 (Arachis hypogaea (peanut)).
T2 sequence: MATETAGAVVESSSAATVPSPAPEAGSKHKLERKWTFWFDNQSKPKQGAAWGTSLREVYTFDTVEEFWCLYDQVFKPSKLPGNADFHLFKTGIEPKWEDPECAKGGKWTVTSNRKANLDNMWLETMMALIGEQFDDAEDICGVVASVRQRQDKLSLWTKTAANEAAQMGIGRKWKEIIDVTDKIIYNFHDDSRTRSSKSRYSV
The description is as above.

The target in experiment [3] is T3, eIF(iso)4E-NY (PeaeIF(iso)4E attached to the N-terminal fragment of YFP) (Arachis hypogaea (peanut)).
T3 sequence: T2 sequence
The experiment in a line: split reporter; BiFC with split YFP; eIF4E/eIF(iso)4E in pEarleyGate202-NYFP, VPg/HC-Pro in pEarleyGate202-CYFP; transient expression in Arabidopsis protoplasts, 12-16 h in the dark, confocal laser-scanning microscopy.

The target in experiment [4] is T4, eIF4E-NY (PeaeIF4E attached to the N-terminal fragment of YFP) (Arachis hypogaea (peanut)) (UniProt K0P2S0).
T4 sequence: T1 sequence
The experiment is described as above.

Results are given in words; binding and its absence hold for the method and conditions named. A result given as binding can be weak or reduced; the word gives no strength. Sequences can lack the tags named with a protein. For some assays here: Binding seen in cells or lysates may run through a third protein.

Take “PStV HC-Pro (helper component proteinase) in the prey vector pGADT7 (Peanut stripe virus)”: the binding result in experiment [1] and in experiment [2] was “binds” in each case.

As to “VPg-CY (PStV VPg fused to the C-terminal fragment of YFP) (Peanut stripe virus)”, the binding result in experiment [3] and in experiment [4] was “binds” throughout.

Regarding “HC-Pro-CY (PStV HC-Pro fused to the C-terminal fragment of YFP) (Peanut stripe virus)”, the binding result in experiment [3] and in experiment [4] was “binds” in each case.

For the substance “PStV VPg (viral protein genome-linked) in the prey vector pGADT7 (Peanut stripe virus)”, the binding entry in experiment [1] and in experiment [2] was “binds” in each case.

These data come from publication PMC5344889.
